The assay has as its target T1, GFP-Rab41 (human) (UniProt Q5JT25).
T1 sequence: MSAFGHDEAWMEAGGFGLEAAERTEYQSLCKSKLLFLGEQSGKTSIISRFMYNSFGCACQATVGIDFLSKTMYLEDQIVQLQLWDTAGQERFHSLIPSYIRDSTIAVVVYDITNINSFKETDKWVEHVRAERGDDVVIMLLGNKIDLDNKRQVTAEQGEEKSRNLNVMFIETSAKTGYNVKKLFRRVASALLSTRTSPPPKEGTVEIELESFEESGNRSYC
Kind of assay: affinity purification with mass spectrometry; HEK293T expressing GFP or GFP-Rab41, treated with DMSO or LLOMe; GFP-Trap beads; n = 4; proteins found in the GFP-only condition removed.

Results are given in words; binding and its absence hold for the method and conditions named. Binding seen in cells or lysates may run through a third protein. A yes stands for co-enrichment or nearness to the bait. Other partners may have been found. Tags and fused reporters may be left off the sequences shown.

B1: RNF185 (protein, UniProt Q96GF1 1-192)
chain: MASKGPSASASPENSSAGGPSGSSNGAGESGGQDSTFECNICLDTAKDAVISLCGHLFCWPCLHQWLETRPNRQVCPVCKAGISRDKVIPLYGRGSTGQQDPREKTPPRPQGQRPEPENRGGFQGFGFGDGGFQMSFGIGAFPFGIFATAFNINDGRPPPAVPGTPQYVDEQFLSRLFLFVALVIMFWLLIA
B1: the binding entry was “binds”.

B2: CLTA (protein, UniProt P09496 1-248)
chain: MAELDPFGAPAGAPGGPALGNGVAGAGEEDPAAAFLAQQESEIAGIENDEAFAILDGGAPGPQPHGEPPGGPDAVDGVMNGEYYQESNGPTDSYAAISQVDRLQSEPESIRKWREEQMERLEALDANSRKQEAEWKEKAIKELEEWYARQDEQLQKTKANNRVADEAFYKQPFADVIGYVTNINHPCYSLEQAAEEAFVNDIDESSPGTEWERVARLCDFNPKSSKQAKDVSRMRSVLISLKQAPLVH
Regarding B2, the binding result is recorded as “binds”.

B3: endogenous VPS4A (identified by mass spectrometry) (protein, UniProt Q9UN37 1-437)
chain: MTTSTLQKAIDLVTKATEEDKAKNYEEALRLYQHAVEYFLHAIKYEAHSDKAKESIRAKCVQYLDRAEKLKDYLRSKEKHGKKPVKENQSEGKGSDSDSEGDNPEKKKLQEQLMGAVVMEKPNIRWNDVAGLEGAKEALKEAVILPIKFPHLFTGKRTPWRGILLFGPPGTGKSYLAKAVATEANNSTFFSVSSSDLMSKWLGESEKLVKNLFELARQHKPSIIFIDEVDSLCGSRNENESEAARRIKTEFLVQMQGVGNNNDGTLVLGATNIPWVLDSAIRRRFEKRIYIPLPEEAARAQMFRLHLGSTPHNLTDANIHELARKTEGYSGADISIIVRDSLMQPVRKVQSATHFKKVCGPSRTNPSMMIDDLLTPCSPGDPGAMEMTWMDVPGDKLLEPVVCMSDMLRSLATTRPTVNADDLLKVKKFSEDFGQES
With B3, the binding entry is on record as “binds”.

B4: endogenous TOM1L2 (protein, UniProt Q6ZVM7 1-507)
chain: MEFLLGNPFSTPVGQCLEKATDGSLQSEDWTLNMEICDIINETEEGPKDAIRALKKRLNGNRNYREVMLALTVLETCVKNCGHRFHILVANRDFIDSVLVKIISPKNNPPTIVQDKVLALIQAWADAFRSSPDLTGVVHIYEELKRKGVEFPMADLDALSPIHTPQRSVPEVDPAATMPRSQSQQRTSAGSYSSPPPAPYSAPQAPALSVTGPITANSEQIARLRSELDVVRGNTKVMSEMLTEMVPGQEDSSDLELLQELNRTCRAMQQRIVELISRVSNEEVTEELLHVNDDLNNVFLRYERFERYRSGRSVQNASNGVLNEVTEDNLIDLGPGSPAVVSPMVGNTAPPSSLSSQLAGLDLGTESVSGTLSSLQQCNPRDGFDMFAQTRGNSLAEQRKTVTYEDPQAVGGLASALDNRKQSSEGIPVAQPSVMDDIEVWLRTDLKGDDLEEGVTSEEFDKFLEERAKAAEMVPDLPSPPMEAPAPASNPSGRKKPERSEDALFAL
On to B4, for which the binding result is reported as “binds”.

B5: KCTD19 (protein, UniProt Q17RG1 1-926)
chain: MEESGMAHESAEDLFHFNVGGWHFSVPRSKLSQFPDSLLWKEASALTSSESQRLFIDRDGSTFRHVHYYLYTSKLSFSSCAELNLLYEQALGLQLMPLLQTLDNLKEGKHHLRVRPADLPVAERASLNYWRTWKCISKPSEFPIKSPAFTGLHDKAPLGLMDTPLLDTEEEVHYCFLPLDLVAKYPSLVTEDNLLWLAETVALIECECSEFRFIVNFLRSQKILLPDNFSNIDVLEAEVEILEIPALTEAVRWYRMNMGGCSPTTCSPLSPGKGARTASLESVKPLYTMALGLLVKYPDSALGQLRIESTLDGSRLYITGNGVLFQHVKNWLGTCRLPLTETISEVYELCAFLDKRDITYEPIKVALKTHLEPRTLAPMDVLNEWTAEITVYSPQQIIKVYVGSHWYATTLQTLLKYPELLSNPQRVYWITYGQTLLIHGDGQMFRHILNFLRLGKLFLPSEFKEWPLFCQEVEEYHIPSLSEALAQCEAYKSWTQEKESENEEAFSIRRLHVVTEGPGSLVEFSRDTKETTAYMPVDFEDCSDRTPWNKAKGNLVRSNQMDEAEQYTRPIQVSLCRNAKRAGNPSTYSHCRGLCTNPGHWGSHPESPPKKKCTTINLTQKSETKDPPATPMQKLISLVREWDMVNCKQWEFQPLTATRSSPLEEATLQLPLGSEAASQPSTSAAWKAHSTASEKDPGPQAGAGAGAKDKGPEPTFKPYLPPKRAGTLKDWSKQRTKERESPAPEQPLPEASEVDSLGVILKVTHPPVVGSDGFCMFFEDSIIYTTEMDNLRHTTPTASPQPQEVTFLSFSLSWEEMFYAQKCHCFLADIIMDSIRQKDPKAITAKVVSLANRLWTLHISPKQFVVDLLAITGFKDDRHTQERLYSWVELTLPFARKYGRCMDLLIQRGLSRSVSYSILGKYLQED
For B5, the binding entry is “binds”.

(Values after PMC10558455.)
